At least one peptide structure holds a part that was inferred or is arguable (an end, a ring closure or a residue).
Experiments:
[1] = target: T1, Nectin-1 (Homo sapiens, UniProt Q15223); assay: Nectin-4 paralogue screening by SPR; assay type: binding; conditions: Nectin-1, up to a concentration of 5000 nM
T1 construct: purchased R&D Systems 2880-N1
T1 sequence (Q15223 31-517): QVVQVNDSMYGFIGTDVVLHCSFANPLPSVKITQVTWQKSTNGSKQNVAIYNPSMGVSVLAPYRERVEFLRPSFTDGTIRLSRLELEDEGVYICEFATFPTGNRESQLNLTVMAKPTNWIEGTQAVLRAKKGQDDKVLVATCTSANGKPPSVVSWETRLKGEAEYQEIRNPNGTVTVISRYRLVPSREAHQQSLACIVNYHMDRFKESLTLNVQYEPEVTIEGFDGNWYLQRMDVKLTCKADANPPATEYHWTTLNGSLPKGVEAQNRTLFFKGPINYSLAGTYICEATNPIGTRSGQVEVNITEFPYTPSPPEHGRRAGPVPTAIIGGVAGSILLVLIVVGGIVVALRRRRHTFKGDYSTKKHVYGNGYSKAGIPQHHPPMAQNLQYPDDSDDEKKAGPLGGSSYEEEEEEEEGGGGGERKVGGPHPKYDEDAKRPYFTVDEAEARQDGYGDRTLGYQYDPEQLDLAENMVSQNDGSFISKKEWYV

Amino acid sequences for entries named in this document (tags omitted). Residues count along the entry.
UniProt Q9NQS3, 58-549: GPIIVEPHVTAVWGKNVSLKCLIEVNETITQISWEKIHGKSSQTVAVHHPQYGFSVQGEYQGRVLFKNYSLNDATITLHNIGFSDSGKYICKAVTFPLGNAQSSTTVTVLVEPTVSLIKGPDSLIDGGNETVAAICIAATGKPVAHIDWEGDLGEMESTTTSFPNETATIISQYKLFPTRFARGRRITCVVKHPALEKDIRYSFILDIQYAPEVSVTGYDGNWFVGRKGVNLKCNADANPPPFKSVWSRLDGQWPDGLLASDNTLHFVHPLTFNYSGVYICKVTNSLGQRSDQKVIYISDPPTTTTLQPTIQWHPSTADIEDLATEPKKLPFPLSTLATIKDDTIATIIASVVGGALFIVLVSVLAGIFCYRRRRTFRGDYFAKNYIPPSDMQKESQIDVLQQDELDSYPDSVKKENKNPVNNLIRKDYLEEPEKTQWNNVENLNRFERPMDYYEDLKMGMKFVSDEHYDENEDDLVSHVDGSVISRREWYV

[2] = target: T2, Nectin-like-3 (Homo sapiens, UniProt Q8N3J6); assay: Nectin-4 paralogue screening by SPR; assay type: binding; conditions: Nectin-like-3, up to a concentration of 5000 nM
T2 construct: purchased R&D Systems 4290-S4-050
T2 sequence (Q8N3J6 25-435): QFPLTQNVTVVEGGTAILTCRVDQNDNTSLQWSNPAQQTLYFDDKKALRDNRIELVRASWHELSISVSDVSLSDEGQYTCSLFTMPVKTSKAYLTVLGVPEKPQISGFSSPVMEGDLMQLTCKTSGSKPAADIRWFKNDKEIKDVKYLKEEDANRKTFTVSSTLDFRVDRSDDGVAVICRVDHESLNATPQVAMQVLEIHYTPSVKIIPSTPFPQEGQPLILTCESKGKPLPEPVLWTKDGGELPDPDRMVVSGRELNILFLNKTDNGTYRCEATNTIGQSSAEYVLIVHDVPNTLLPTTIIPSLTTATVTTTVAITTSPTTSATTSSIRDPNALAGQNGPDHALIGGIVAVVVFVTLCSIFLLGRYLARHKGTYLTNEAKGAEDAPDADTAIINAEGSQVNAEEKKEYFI

[3] = target: T3, Nectin-like-4 (Homo sapiens, UniProt Q8NFZ8); assay: Nectin-4 paralogue screening by SPR; assay type: binding; conditions: Nectin-like-4, up to a concentration of 5000 nM
T3 construct: purchased R&D Systems 4164-S4
T3 sequence (Q8NFZ8 21-388): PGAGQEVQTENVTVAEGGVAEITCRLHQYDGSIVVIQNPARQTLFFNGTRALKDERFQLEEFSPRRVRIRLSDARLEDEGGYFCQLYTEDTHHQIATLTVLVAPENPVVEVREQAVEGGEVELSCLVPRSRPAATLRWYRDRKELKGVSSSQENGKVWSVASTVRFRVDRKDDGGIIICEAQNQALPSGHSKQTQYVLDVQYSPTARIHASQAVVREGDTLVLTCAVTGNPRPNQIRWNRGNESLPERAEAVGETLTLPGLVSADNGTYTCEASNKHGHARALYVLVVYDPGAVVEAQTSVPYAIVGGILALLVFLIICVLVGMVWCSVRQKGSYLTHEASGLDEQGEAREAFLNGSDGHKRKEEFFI

[4] = test system: Nectin-4 overexpressing CT26 tumor model (CT26#7); assay: Anti-tumor activity in syngeneic Nectin-4 overexpressing CT26 tumor model (CT26#7); assay type: in vivo, mouse; conditions: 5 mg/kg ip Q3D, 6 doses; BALB/c-hCD137 mice; p<0.0001 Student's t-test
[5] = target: T4, Nectin-3 (Homo sapiens, UniProt Q9NQS3); assay: Nectin-4 paralogue screening by SPR; assay type: binding; conditions: Nectin-3, up to a concentration of 5000 nM
T4 construct: purchased R&D Systems 3064-N3

For `CCCC[C@@H]1NC(=O)[C@H](Cc2ccc(O)cc2)NC(=O)[C@@H]2CCCN2C(=O)[C@H](CC(=O)O)NC(=O)[C@H](C)NC(=O)[C@H](Cc2ccccc2)NC(=O)[C@@H]2CSCCC(=O)N3CN(CN(C3)C(=O)CCSC[C@@H](C(=O)N[C@@H](C)C(N)=O)NC1=O)C(=O)CCSC[C@H](NC(C)=O)C(=O)N[C@@H](CC(C)(C)C)C(=O)N1CCC[C@H]1C(=O)N[C@@H](CCC(=O)O)C(=O)N[C@H](CCCCNC(=O)CCc1cn(CCOCCOCCOCCN(CCOCCOCCOCCC(=O)N[C@H]3CSCCC(=O)N4CN5CN(C4)C(=O)CCSC[C@H](NC(=O)[C@@H](CC(=O)O)NC(=O)[C@H](Cc4cccc6ccccc46)NC(=O)[C@@H]4CCCN4C3=O)C(=O)N[C@@H](CCSC)C(=O)N[C@@H](CCCCNC(=N)N)C(=O)N[C@@H](CC(=O)O)C(=O)N[C@@H](Cc3c[nH]c4ccccc34)C(=O)N[C@@H](CO)C(=O)N[C@@H]([C@@H](C)O)C(=O)N3CCC[C@H]3C(=O)N3C[C@H](O)C[C@H]3C(=O)N[C@@H](Cc3c[nH]c4ccccc34)C(=O)N[C@H](C(N)=O)CSCCC5=O)CCOCCOCCOCCn3cc(CCC(=O)NCCCC[C@H]4NC(=O)[C@H](CCC(=O)O)NC(=O)[C@@H]5CCCN5C(=O)[C@H](CC(C)(C)C)NC(=O)[C@@H](NC(C)=O)CSCCC(=O)N5CN6CN(C5)C(=O)CCSC[C@H](NC(=O)[C@H](Cc5ccc(O)cc5)NC(=O)[C@@H]5CCCN5C4=O)C(=O)N[C@@H](Cc4ccccc4)C(=O)N[C@@H](C)C(=O)N[C@@H](CC(=O)O)C(=O)N4CCC[C@H]4C(=O)N[C@@H](Cc4ccc(O)cc4)C(=O)N[C@@H](CCCC)C(=O)N[C@H](C(=O)N[C@@H](C)C(N)=O)CSCCC6=O)nn3)nn1)C(=O)N1CCC[C@H]1C(=O)N[C@@H](Cc1ccc(O)cc1)C(=O)N2` [BCY11863], the “Binding by SPR” value [1] was “did not show any binding”, the “Binding by SPR” value [2] was “did not show any binding” and the “Binding by SPR” value [3] was “did not show any binding”. The “Tumor growth vs vehicle” value [4] was “reduced the tumor growth from day 7 forward” and the “Binding by SPR” value [5] was “did not show any binding”.

From patent publication US11306123B2, “Heterotandem bicyclic peptide complex” (BicycleTx Limited, priority 2019, dated 2022)
